Data reported in paper PMC5880407.
These are yes or no findings as the source states them, for the method shown. Binding seen in cells or lysates may run through a third protein. Some entries that bind do so weakly or less than the wild type.

By UniProt entry, the sequences of proteins in these tests, tags left out. Where a name states a change or a piece, a line headed by the entry shows the natural chain unless it says otherwise.
UniProt Q03018: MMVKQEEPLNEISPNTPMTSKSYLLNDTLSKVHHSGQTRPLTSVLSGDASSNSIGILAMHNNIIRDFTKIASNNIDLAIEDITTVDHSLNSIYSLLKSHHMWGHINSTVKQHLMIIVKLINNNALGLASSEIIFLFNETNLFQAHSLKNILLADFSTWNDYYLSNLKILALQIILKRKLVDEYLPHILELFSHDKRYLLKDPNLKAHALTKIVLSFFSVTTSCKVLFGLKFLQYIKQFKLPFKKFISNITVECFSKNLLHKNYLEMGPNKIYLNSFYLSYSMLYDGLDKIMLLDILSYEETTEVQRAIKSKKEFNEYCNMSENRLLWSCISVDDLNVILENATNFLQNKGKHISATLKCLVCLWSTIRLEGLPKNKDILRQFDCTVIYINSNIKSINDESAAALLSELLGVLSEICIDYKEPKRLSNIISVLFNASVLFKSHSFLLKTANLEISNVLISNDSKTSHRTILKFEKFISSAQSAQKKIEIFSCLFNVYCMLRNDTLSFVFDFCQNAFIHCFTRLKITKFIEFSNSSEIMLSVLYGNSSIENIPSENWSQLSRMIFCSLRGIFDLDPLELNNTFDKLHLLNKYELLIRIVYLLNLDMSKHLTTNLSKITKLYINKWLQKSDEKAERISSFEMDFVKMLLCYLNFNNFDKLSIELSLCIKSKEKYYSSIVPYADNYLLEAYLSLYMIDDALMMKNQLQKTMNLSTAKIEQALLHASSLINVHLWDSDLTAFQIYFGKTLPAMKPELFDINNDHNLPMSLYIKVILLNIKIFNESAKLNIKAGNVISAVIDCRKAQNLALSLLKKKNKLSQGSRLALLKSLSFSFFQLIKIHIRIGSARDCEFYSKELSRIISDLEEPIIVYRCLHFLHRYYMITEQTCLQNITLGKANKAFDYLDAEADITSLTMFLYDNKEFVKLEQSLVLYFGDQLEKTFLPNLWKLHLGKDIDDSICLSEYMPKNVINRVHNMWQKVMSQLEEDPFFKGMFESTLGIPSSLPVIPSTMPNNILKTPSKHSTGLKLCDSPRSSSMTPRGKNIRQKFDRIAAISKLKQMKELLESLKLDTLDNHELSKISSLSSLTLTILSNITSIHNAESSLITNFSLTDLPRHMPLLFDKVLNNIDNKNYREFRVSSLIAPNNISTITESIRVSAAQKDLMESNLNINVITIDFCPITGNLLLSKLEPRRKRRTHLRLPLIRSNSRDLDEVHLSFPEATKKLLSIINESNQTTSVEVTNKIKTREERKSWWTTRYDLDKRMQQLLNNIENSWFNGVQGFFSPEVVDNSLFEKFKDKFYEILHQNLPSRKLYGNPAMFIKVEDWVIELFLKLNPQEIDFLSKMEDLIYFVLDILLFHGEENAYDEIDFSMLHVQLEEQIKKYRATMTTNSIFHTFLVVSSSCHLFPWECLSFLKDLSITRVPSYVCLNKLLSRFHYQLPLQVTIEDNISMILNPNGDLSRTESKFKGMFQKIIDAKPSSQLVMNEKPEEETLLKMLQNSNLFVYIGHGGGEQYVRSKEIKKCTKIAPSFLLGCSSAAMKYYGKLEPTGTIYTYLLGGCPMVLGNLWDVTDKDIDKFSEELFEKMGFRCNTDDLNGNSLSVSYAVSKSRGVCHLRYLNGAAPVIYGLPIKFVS

Columns and labels:
Assay in all cases: co-IP; anti-FLAG-M2 immunoprecipitation of Esp1-3FLAG (wild type and alanine mutants) from yeast grown at 25°C and arrested with nocodazole; APC lysis buffer (50 mM Hepes-KOH pH 7.8, 700 mM NaCl, 0.25% NP-40); immunoprecipitates blotted with anti-Esp1 and anti-Pds1
[1] = biological target: Esp1-3FLAG (wild type) (budding yeast) (UniProt Q03018)
[2] = biological target: esp1-1A-3FLAG (budding yeast) (UniProt Q03018)
[3] = biological target: esp1-2A+1A-3FLAG (budding yeast) (UniProt Q03018)
[4] = biological target: esp1-2A+3A+1A-3FLAG (budding yeast) (UniProt Q03018)
[5] = biological target: esp1-2A+3A-3FLAG (budding yeast) (UniProt Q03018)
[6] = biological target: esp1-2A-3FLAG (budding yeast) (UniProt Q03018)
[7] = biological target: esp1-3A+1A-3FLAG (budding yeast) (UniProt Q03018)
[8] = biological target: esp1-3A-3FLAG (budding yeast) (UniProt Q03018)

Measured: binding

B1: Pds1 (Securin) (protein, UniProt P40316 1-373)
chain: MMPANEDKENNIVYTGNESSGINFPQTPAHLLKRSHSNILKPPVRLDQLKRDANSNNGNTLKYIQGGKEVSPTKRLHTHAQQQGRLPLAAKDNNRSKSFIFPETSNQSKDADLPQLQNTLSIRKNDQLRKLSQISRSRSRANHNDLLSNSRKLQKYGSVLGYNALPKMKSLVLKDLADSGKNEESSDDDEGNEDSESKLGKKLQSALLKQDSSDGENELNGGLGLFNEQGGLQQLIKNSTKNEQKTKNDKSDKTDDYDIEIAPQRQEPLPYVPEGYSPFQQDDIEKLKTFNSPYKLDLEDEDDTPDKVDLLPLEQIDEEGEKDETECITRNQEEGAALPLLSKNFKEVAAVPTMELVYSEEGLDPEELEDLVT
binds: all assays above
